Sequences of proteins named here, by UniProt entry; tags and fusion partners are left off.
UniProt Q9H6L5: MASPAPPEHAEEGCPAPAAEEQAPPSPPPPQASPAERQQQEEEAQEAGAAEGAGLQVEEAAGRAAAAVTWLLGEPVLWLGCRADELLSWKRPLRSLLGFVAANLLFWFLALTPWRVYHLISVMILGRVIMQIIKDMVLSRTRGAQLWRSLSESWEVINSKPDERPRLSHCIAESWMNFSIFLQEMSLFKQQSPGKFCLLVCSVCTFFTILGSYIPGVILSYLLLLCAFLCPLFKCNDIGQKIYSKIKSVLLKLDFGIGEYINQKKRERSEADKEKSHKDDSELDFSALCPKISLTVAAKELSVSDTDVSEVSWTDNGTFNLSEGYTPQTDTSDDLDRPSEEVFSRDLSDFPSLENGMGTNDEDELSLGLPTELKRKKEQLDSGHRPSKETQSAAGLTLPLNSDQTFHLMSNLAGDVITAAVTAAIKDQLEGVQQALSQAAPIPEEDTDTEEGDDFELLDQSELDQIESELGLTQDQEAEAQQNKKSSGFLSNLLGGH
UniProt P68400: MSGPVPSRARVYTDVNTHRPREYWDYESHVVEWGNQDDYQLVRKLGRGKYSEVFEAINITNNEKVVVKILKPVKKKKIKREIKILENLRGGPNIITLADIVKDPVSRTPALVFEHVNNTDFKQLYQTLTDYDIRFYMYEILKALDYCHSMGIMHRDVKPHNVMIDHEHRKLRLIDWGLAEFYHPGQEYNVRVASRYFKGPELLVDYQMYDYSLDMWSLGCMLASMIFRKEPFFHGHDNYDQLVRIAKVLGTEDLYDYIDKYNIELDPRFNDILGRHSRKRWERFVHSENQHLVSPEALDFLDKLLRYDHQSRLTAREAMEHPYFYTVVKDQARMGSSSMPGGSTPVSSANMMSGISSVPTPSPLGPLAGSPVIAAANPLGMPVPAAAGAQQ
UniProt P67870: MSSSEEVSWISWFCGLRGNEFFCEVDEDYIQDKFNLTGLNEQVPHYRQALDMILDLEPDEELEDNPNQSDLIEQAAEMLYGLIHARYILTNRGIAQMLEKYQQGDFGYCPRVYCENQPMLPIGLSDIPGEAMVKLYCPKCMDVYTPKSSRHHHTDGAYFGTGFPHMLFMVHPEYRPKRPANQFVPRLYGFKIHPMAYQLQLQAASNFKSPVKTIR

In paper PMC9432840:

How the values were obtained:
Experiment in all cases: affinity purification with mass spectrometry; U2OS FLAG-HA-FAM134A, -FAM134B and -FAM134C doxycycline-inducible cells; anti-HA agarose IP of lysates (50 mM tris-HCl pH 8.0, 120 mM NaCl, 1% NP-40), label-free LC-MS/MS
HA-FAM134C-WT = HA-FAM134C-WT (UniProt Q86VR2)
FLAG-HA-FAM134A = target: T1, FLAG-HA-FAM134A (UniProt Q8NC44)
T1 sequence: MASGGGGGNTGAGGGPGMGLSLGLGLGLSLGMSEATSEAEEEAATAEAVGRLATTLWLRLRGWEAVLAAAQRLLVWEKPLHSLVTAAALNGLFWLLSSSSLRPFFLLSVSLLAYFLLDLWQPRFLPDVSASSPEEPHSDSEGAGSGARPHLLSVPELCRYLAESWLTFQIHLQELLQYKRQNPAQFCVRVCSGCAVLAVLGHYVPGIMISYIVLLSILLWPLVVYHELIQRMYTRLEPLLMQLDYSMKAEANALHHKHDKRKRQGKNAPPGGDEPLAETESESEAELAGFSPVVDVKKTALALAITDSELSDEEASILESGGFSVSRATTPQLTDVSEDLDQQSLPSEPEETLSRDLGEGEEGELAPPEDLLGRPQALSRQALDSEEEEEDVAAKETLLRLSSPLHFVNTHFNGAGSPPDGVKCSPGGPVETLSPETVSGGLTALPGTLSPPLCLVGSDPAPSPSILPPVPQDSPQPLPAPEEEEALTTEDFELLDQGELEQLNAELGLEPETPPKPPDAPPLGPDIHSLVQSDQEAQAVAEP

FLAG-HA-FAM134B = FLAG-HA-FAM134B (UniProt Q9H6L5)

With “CK2 α subunit (from UniProt P68400 1-391) (enzyme)” as the substance, how does the binding (HA-FAM134C-WT) read?
The binding was “binds”.

And the binding (FLAG-HA-FAM134A)?
Its binding is “no binding”.

What about the binding (FLAG-HA-FAM134B) of the same substance?
The binding was “no binding”.

“CK2 α^I subunit (from UniProt P19784 1-350) (enzyme)” was tested. Which binding (HA-FAM134C-WT) did it give?
Its binding is “binds”.

And the binding (FLAG-HA-FAM134A)?
The binding was “no binding”.

And the binding (FLAG-HA-FAM134B)?
The binding was “no binding”.

For “CK2 β subunit (from UniProt P67870 1-215)”, which binding (HA-FAM134C-WT) is on record?
Its binding is “binds”.

What about the binding (FLAG-HA-FAM134A) of the same substance?
The binding was “no binding”.

What about the binding (FLAG-HA-FAM134B) of the same substance?
The binding was “no binding”.

Results are given in words; binding and its absence hold for the method and conditions named. Binding seen in cells or lysates may run through a third protein. Here binding means that the protein was enriched with, or labelled near, the bait; the list need not be complete. For part of these data: No binding means not detected with the bait. For part of these data: Where a sequence is shown, tags or fusion partners need not be part of it.
